Laboratory results reported in patent US20120295935A1, “MIXED AMINAL PHARMACEUTICAL COMPOSITIONS AND USES THEREOF” (priority 2010, published 2012).

System: MC3T3 cells
Test: Microarray analysis (GSEA, IPA) of thapsigargin-induced mild ER stress
Type: cell-based, mouse
Conditions: 10 nM; score of 3 or above statistically significant

Q: How did the “IPA pathway score (Pathway 1 and Pathway 2)” value turn out when `C/C=C(/C)C(=O)O[C@H]1C(C)=C2[C@H]([C@@H]1OC(=O)CCCCCCC)[C@@](C)(OC(C)=O)C[C@H](OC(=O)CCC)[C@@]1(O)[C@H]2OC(=O)[C@@]1(C)O` [thapsigargin] was run?
A: 55
